# Experimental data taken from PMC10955726.
# Chains of the proteins cited; added tags and fusions are not shown. Lines headed by an entry give the natural chain unless they say otherwise; changes in a name come on top.
# UniProt Q96AH0: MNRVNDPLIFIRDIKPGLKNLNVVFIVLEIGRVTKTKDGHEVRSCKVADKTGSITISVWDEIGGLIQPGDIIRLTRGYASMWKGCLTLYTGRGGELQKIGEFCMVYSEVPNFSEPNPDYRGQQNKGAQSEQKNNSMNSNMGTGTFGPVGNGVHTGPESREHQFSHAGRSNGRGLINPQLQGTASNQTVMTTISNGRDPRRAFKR
# Construct, isoform or probe ends are uncertain for at least one entry. Negatives hold for the conditions tested.
# Target: hSSB2 (C-terminally His-tagged) (Homo sapiens) (UniProt Q96AH0)
# Test: fluorescence anisotropy
# Conditions: Anisotropy: standard LLPS buffer without MgCl2 (50 mM KCl standard), 25 C, 10 nM probe, recombinant protein, protein details: C-terminal His, label: 3'-fluorescein, single-stranded DNA
sequence,measurement,setting,value
ATTTTTGCGGATGGCTTAGAGCTTAATTGCGCAACG [ss36 DNA],Kd,"250 mM K-glutamate, Hill n 2.8",3.4 µM
same,binding result,"250 mM KCl, binding practically eliminated",no binding
same,binding result,"250 mM MgCl2, binding practically eliminated",no binding
